PubChem BioAssay AID1159584 | Peter MacCallum Cancer Centre | 2016
In all, the deposit lists about 18,000 reagents; this is a random part of them. Further read-outs or replicates are left out here. The record does not give: the amount of reagent, the time to read-out.

Screen: 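Knock-downs that harm CDH1-null cells more than parental MCF10A cells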 (primary screen)
System: human MCF10A breast epithelial cells, parental and CDH1-null
Reagents: siRNA against human genes
Measurement: 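ATP luminescence (CellTiter-Glo) viability per line relative to mean mock wells over all plates, and the ratio of CDH1-null to parental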
Reading the numbers: CDH1-null / parental viability ratio: higher = CDH1-null cells survive relatively better than parental

{"target": "ADGRF2P", "CDH1-null / parental viability ratio": 0.77}
{"target": "ITGA6", "CDH1-null / parental viability ratio": 1.14}
{"target": "CTSZ", "CDH1-null / parental viability ratio": 1.34}
{"target": "HPS6", "CDH1-null / parental viability ratio": 0.85}
{"target": "RAB1A", "CDH1-null / parental viability ratio": 0.85}
{"target": "HPS1", "CDH1-null / parental viability ratio": 0.91}
{"target": "DIRAS1", "CDH1-null / parental viability ratio": 0.68}
{"target": "SLC35E4", "CDH1-null / parental viability ratio": 1.15}
{"target": "KMT5C", "CDH1-null / parental viability ratio": 0.89}
{"target": "PHPT1", "CDH1-null / parental viability ratio": 1.38}
{"target": "TLE4", "CDH1-null / parental viability ratio": 0.93}
{"target": "PDGFA", "CDH1-null / parental viability ratio": 1.02}
{"target": "STX16", "CDH1-null / parental viability ratio": 1.11}
{"target": "CT47A1", "CDH1-null / parental viability ratio": 1.26}
{"target": "DDC", "CDH1-null / parental viability ratio": 0.97}
{"target": "MTERF4", "CDH1-null / parental viability ratio": 0.85}
{"target": "H6PD", "CDH1-null / parental viability ratio": 1.14}
{"target": "TECRL", "CDH1-null / parental viability ratio": 1.04}
{"target": "NTM", "CDH1-null / parental viability ratio": 1}
{"target": "CREBL2", "CDH1-null / parental viability ratio": 0.95}
{"target": "MYH1", "CDH1-null / parental viability ratio": 1.2}
{"target": "DYNC2LI1", "CDH1-null / parental viability ratio": 1.06}
{"target": "SYT14", "CDH1-null / parental viability ratio": 0.74}
{"target": "CHP2", "CDH1-null / parental viability ratio": 1.14}
{"target": "NRK", "CDH1-null / parental viability ratio": 0.9}
{"target": "NODAL", "CDH1-null / parental viability ratio": 0.56}
{"target": "MYOC", "CDH1-null / parental viability ratio": 0.89}
{"target": "VWA5A", "CDH1-null / parental viability ratio": 1.2}
{"target": "KCNE5", "CDH1-null / parental viability ratio": 1.15}
{"target": "TLCD4", "CDH1-null / parental viability ratio": 0.82}
{"target": "ATOH1", "CDH1-null / parental viability ratio": 0.7}
{"target": "PTTG2", "CDH1-null / parental viability ratio": 1.12}
{"target": "SMG9", "CDH1-null / parental viability ratio": 1}
{"target": "MYBPC2", "CDH1-null / parental viability ratio": 1.2}
{"target": "VGLL3", "CDH1-null / parental viability ratio": 0.96}
{"target": "FBXO39", "CDH1-null / parental viability ratio": 0.96}
{"target": "SLN", "CDH1-null / parental viability ratio": 1.14}
{"target": "GZMM", "CDH1-null / parental viability ratio": 0.81}
{"target": "ANKDD1A", "CDH1-null / parental viability ratio": 1.01}
{"target": "SHISA2", "CDH1-null / parental viability ratio": 0.76}
{"target": "ZNF474", "CDH1-null / parental viability ratio": 0.93}
{"target": "PI3", "CDH1-null / parental viability ratio": 0.99}
{"target": "B3GALT4", "CDH1-null / parental viability ratio": 0.91}
{"target": "KIAA1328", "CDH1-null / parental viability ratio": 1.18}
{"target": "CYP2J2", "CDH1-null / parental viability ratio": 1.12}
